# PubChem BioAssay AID1159578, Peter MacCallum Cancer Centre – 2015
# Assay: 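siRNA pools altering how lymphatic endothelial cells close a scratch wound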 (primary screen)
# System: human lymphatic endothelial cells
# Knock-down reagent: siRNA pool against human genes, 40 nM
# Timing: 48 h after transfection
# Measured: 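Cells stained with dye and imaged after a scratch; covered wound area and nuclei counted, duplicates averaged, migration set against mock wells and turned into a robust z-score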
# Scale: migration robust z-score: higher = faster migration into the scratch; nuclei per well: higher = more cells in the well
# Hit rule: 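Pools averaging fewer than 3300 nuclei are never called; remaining pools count as changed when migration robust z lies outside -2 to 2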
# Calls: active = migration changed; inactive = no migration change, or too few cells
# Here is an unselected part of about 18,000 deposited reagents. Of all reagents, about 1,030 (5.7%) were called active. 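Inactive calls also include pools with fewer than 3300 nuclei, whose migration was not assessed.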 Raw values vary from plate to plate and are shown uncorrected. Further read-outs or replicates are left out here. Reagent sequences are not shown.
gene,migration robust z-score,"nuclei per well, duplicate mean",Outcome
KLK8 (GeneID 11202),-0.29,5202,inactive
OPN5 (GeneID 221391),0.8,6134,inactive
HYPK (GeneID 25764),1.12,6102,inactive
TCHHL1 (GeneID 126637),0.68,4821,inactive
EIF3J (GeneID 8669),0.26,3994,inactive
TMEM17 (GeneID 200728),0.52,5326,inactive
ASH2L (GeneID 9070),0.07,6166,inactive
PLP1 (GeneID 5354),-1.88,4976,inactive
MTF1 (GeneID 4520),-1.5,5455,inactive
CT47A5 (GeneID 728072),-1.4,6252,inactive
ZNRF1 (GeneID 84937),1.09,7008,inactive
C1GALT1 (GeneID 56913),-0.29,5461,inactive
CFAP210 (GeneID 129881),2.25,6980,active
OR52A4P (GeneID 390053),1.9,5670,inactive
SIDT1 (GeneID 54847),-0.66,5496,inactive
H1-0 (GeneID 3005),0.49,6399,inactive
PDC (GeneID 5132),0.7,5020,inactive
PCDHGA6 (GeneID 56109),-3.54,4376,active
SLC4A3 (GeneID 6508),0,5118,inactive
OR5B3 (GeneID 441608),0.24,5896,inactive
GPR85 (GeneID 54329),0.36,4296,inactive
SPINK7 (GeneID 84651),-1.06,696,inactive
ANGPTL7 (GeneID 10218),-0.96,4986,inactive
GNAI3 (GeneID 2773),-0.31,5280,inactive
KCTD7 (GeneID 154881),1.04,6004,inactive
ISCA1 (GeneID 81689),-0.79,4814,inactive
TMEM203 (GeneID 94107),-0.57,5940,inactive
AKR1E2 (GeneID 83592),0.44,4886,inactive
GPR161 (GeneID 23432),-0.42,5032,inactive
NPPA (GeneID 4878),0.94,5054,inactive
CCT6B (GeneID 10693),2.46,5868,active
TNIP2 (GeneID 79155),0.7,5286,inactive
BMP5 (GeneID 653),1.56,6329,inactive
PSME3 (GeneID 10197),0.27,5941,inactive
BCDIN3D (GeneID 144233),-0.62,7060,inactive
CACNG7 (GeneID 59284),-0.42,4640,inactive
ZNF777 (GeneID 27153),-1.55,5264,inactive
IL17D (GeneID 53342),-1.04,4881,inactive
IZUMO2 (GeneID 126123),0.22,6188,inactive
